From publication PMC9239266
Results are given in words; binding and its absence hold for the method and conditions named. Binding seen in cells or lysates may run through a third protein. These calls come from enrichment with a bait or labelling near it, and not all partners need be listed. Where a sequence is shown, tags or fusion partners need not be part of it.

Target: T1, Flag-RFP-CopC (full-length, WT) (Chromobacterium violaceum) (UniProt Q7NWF2)
T1 sequence: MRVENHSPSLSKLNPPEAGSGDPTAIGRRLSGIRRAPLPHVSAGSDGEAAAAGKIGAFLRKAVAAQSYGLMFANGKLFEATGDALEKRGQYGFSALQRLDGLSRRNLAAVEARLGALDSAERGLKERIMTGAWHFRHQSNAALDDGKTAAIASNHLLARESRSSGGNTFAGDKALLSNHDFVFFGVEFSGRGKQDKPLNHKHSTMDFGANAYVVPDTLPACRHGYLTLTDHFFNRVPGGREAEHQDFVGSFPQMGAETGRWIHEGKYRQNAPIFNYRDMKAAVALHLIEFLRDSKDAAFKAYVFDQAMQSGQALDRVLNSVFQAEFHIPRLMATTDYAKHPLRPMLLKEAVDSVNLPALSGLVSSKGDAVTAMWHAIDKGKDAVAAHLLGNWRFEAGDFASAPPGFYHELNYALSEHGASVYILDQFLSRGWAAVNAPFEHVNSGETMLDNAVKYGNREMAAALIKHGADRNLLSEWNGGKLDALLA
Test: affinity purification with mass spectrometry

B1: caspase-7 (endogenous) (enzyme, UniProt P55210 1-303)
chain: MADDQGCIEEQGVEDSANEDSVDAKPDRSSFVPSLFSKKKKNVTMRSIKTTRDRVPTYQYNMNFEKLGKCIIINNKNFDKVTGMGVRNGTDKDAEALFKCFRSLGFDVIVYNDCSCAKMQDLLKKASEEDHTNAACFACILLSHGEENVIYGKDGVTPIKDLTAHFRGDRCKTLLEKPKLFFIQACRGTELDDGIQADSGPINDTDANPRYKIPVEADFLFAYSTVPGYYSWRSPGRGSWFVQALCSILEEHGKDLEIMQILTRVNDRVARHFESQSDDPHFHEKKQIPCVVSMLTKELYFSQ
  binding: binds
